According to paper PMC3661362:
Results are given in words; binding and its absence hold for the method and conditions named. In cells and extracts the contact can be indirect. Values belong to the molecule of their own block, whether it stands above or below them.

Chains of the proteins cited; added tags and fusions are not shown. Residues count along the entry.
UniProt Q69ZK9, residues 15-836: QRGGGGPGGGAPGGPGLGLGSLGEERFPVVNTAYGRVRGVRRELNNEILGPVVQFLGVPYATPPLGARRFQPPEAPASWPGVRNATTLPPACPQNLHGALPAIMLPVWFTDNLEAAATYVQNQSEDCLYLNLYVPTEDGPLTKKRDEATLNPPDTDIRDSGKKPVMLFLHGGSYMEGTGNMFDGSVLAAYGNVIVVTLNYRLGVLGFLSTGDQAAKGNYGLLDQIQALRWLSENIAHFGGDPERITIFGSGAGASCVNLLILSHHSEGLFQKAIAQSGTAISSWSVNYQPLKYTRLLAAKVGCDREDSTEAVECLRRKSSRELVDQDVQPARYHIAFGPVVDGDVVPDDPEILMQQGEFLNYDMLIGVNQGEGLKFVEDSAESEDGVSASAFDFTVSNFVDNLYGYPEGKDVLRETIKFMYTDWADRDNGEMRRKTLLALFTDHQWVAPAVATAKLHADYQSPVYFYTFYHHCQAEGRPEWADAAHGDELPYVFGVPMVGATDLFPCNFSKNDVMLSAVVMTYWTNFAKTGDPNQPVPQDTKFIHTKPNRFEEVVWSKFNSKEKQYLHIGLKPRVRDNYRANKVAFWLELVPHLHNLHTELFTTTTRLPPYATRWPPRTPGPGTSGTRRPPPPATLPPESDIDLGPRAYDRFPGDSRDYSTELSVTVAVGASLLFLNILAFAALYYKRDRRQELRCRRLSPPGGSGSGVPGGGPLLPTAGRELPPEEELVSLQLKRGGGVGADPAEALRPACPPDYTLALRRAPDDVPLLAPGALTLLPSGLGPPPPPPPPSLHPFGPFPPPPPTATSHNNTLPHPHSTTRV

Tests used:
[1] = biological target: T1, KCC2, endogenous in mouse cerebral cortex (mouse (endogenous in mouse cerebral cortex)) (UniProt Q91V14); assay: co-IP; total mouse cerebral cortex lysate (2-3 month old mouse); immunoprecipitated with rabbit anti-NL2, rabbit anti-KCC2 or normal rabbit IgG on Dynabeads sheep anti-rabbit IgG, overnight at 4°C; probed with rabbit anti-KCC2 or anti-NL2
T1 sequence: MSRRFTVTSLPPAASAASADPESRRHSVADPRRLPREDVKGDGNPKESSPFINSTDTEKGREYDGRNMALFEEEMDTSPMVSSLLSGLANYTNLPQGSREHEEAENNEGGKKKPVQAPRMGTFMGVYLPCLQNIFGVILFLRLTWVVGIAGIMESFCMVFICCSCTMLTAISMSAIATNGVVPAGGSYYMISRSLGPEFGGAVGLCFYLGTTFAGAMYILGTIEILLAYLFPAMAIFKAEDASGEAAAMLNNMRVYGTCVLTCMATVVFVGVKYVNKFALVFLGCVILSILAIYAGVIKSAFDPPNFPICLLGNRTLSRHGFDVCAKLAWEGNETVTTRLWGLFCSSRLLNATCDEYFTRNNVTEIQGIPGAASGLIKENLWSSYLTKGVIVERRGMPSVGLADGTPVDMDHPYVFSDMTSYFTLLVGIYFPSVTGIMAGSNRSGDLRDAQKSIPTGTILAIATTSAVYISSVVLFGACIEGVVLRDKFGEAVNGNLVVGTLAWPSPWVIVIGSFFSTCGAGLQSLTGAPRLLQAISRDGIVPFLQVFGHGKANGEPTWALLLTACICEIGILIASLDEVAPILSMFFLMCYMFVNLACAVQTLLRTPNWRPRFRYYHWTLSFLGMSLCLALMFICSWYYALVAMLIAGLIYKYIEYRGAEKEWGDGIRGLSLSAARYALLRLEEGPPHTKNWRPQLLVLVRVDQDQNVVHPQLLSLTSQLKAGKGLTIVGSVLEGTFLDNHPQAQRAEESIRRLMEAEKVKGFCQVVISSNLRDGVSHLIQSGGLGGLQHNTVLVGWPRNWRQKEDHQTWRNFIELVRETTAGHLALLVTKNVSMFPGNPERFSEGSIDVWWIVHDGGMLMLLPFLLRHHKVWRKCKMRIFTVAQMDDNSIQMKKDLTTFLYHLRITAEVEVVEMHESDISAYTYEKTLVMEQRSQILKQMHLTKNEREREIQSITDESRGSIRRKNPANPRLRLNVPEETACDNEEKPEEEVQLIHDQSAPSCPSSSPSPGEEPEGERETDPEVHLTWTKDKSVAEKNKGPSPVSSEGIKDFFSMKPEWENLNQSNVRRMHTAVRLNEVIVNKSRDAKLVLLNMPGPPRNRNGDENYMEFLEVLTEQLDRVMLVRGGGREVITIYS

[2] = biological target: HA-tagged WT mouse neuroligin-2 (mouse) (UniProt Q69ZK9); assay: co-IP; HEK 293T cells co-transfected with HA-NL2 and KCC2; lysate in Pierce IP buffer with protease and phosphatase inhibitors; about 2 mg lysate with Dynabeads and 2 ug mouse anti-HA (or normal mouse IgG) overnight at 4°C; blotted with rabbit anti-KCC2 and anti-NL2
[3] = biological target: Neuroligin-2, endogenous in mouse cerebral cortex (mouse (endogenous in mouse cerebral cortex)) (UniProt Q69ZK9); assay: co-IP; total mouse cerebral cortex lysate (2-3 month old mouse); immunoprecipitated with rabbit anti-NL2, rabbit anti-KCC2 or normal rabbit IgG on Dynabeads sheep anti-rabbit IgG, overnight at 4°C; probed with rabbit anti-KCC2 or anti-NL2

- binding [1]: no binding
Molecule: Neuroligin-2, endogenous in mouse cerebral cortex (from UniProt Q69ZK9 15-836)

- binding [2]: no binding
B1: Rat KCC2 (potassium-chloride transporter 2) (protein, UniProt Q63633 1-1139)
chain: MSRRFTVTSLPPAASAASADPESRRHSVADPRRLPREDVKGDGNPKESSPFINSTDTEKGREYDGRNMALFEEEMDTSPMVSSLLSGLANYTNLPQGSKEHEEAENNEGGKKKPVQAPRMGTFMGVYLPCLQNIFGVILFLRLTWVVGIAGIMESFCMVFICCSCTMLTAISMSAIATNGVVPAGGSYYMISRSLGPEFGGAVGLCFYLGTTFAGAMYILGTIEILLAYLFPAMAIFKAEDASGEAAAMLNNMRVYGTCVLTCMATVVFVGVKYVNKFALVFLGCVILSILAIYAGVIKSAFDPPNFPICLLGNRTLSRHGFDVCAKLAWEGNETVTTRLWGLFCSSRLLNATCDEYFTRNNVTEIQGIPGAASGLIKENLWSSYLTKGVIVERRGMPSVGLADGTPVDMDHPYVFSDMTSYFTLLVGIYFPSVTGIMAGSNRSGDLRDAQKSIPTGTILAIATTSAVYISSVVLFGACIEGVVLRDKFGEAVNGNLVVGTLAWPSPWVIVIGSFFSTCGAGLQSLTGAPRLLQAISRDGIVPFLQVFGHGKANGEPTWALLLTACICEIGILIASLDEVAPILSMFFLMCYMFVNLACAVQTLLRTPNWRPRFRYYHWTLSFLGMSLCLALMFICSWYYALVAMLIAGLIYKYIEYRGAEKEWGDGIRGLSLSAARYALLRLEEGPPHTKNWRPQLLVLVRVDQDQNVVHPQLLSLTSQLKAGKGLTIVGSVLEGTFLDNHPQAQRAEESIRRLMEAEKVKGFCQVVISSNLRDGVSHLIQSGGLGGLQHNTVLVGWPRNWRQKEDHQTWRNFIELVRETTAGHLALLVTKNVSMFPGNPERFSEGSIDVWWIVHDGGMLMLLPFLLRHHKVWRKCKMRIFTVAQMDDNSIQMKKDLTTFLYHLRITAEVEVVEMHESDISAYTYEKTLVMEQRSQILKQMHLTKNEREREIQSITDESRGSIRRKNPANTRLRLNVPEETACDNEEKPEEEVQLIHDQSAPSCPSSSPSPGEEPEGEGETDPEKVHLTWTKDKSAAQKNKGPSPVSSEGIKDFFSMKPEWENLNQSNVRRMHTAVRLNEVIVNKSRDAKLVLLNMPGPPRNRNGDENYMEFLEVLTEQLDRVMLVRGGGREVITIYS

- binding [3]: no binding
B2: KCC2, endogenous in mouse cerebral cortex (protein, UniProt Q91V14 1-1138)
chain: MSRRFTVTSLPPAASAASADPESRRHSVADPRRLPREDVKGDGNPKESSPFINSTDTEKGREYDGRNMALFEEEMDTSPMVSSLLSGLANYTNLPQGSREHEEAENNEGGKKKPVQAPRMGTFMGVYLPCLQNIFGVILFLRLTWVVGIAGIMESFCMVFICCSCTMLTAISMSAIATNGVVPAGGSYYMISRSLGPEFGGAVGLCFYLGTTFAGAMYILGTIEILLAYLFPAMAIFKAEDASGEAAAMLNNMRVYGTCVLTCMATVVFVGVKYVNKFALVFLGCVILSILAIYAGVIKSAFDPPNFPICLLGNRTLSRHGFDVCAKLAWEGNETVTTRLWGLFCSSRLLNATCDEYFTRNNVTEIQGIPGAASGLIKENLWSSYLTKGVIVERRGMPSVGLADGTPVDMDHPYVFSDMTSYFTLLVGIYFPSVTGIMAGSNRSGDLRDAQKSIPTGTILAIATTSAVYISSVVLFGACIEGVVLRDKFGEAVNGNLVVGTLAWPSPWVIVIGSFFSTCGAGLQSLTGAPRLLQAISRDGIVPFLQVFGHGKANGEPTWALLLTACICEIGILIASLDEVAPILSMFFLMCYMFVNLACAVQTLLRTPNWRPRFRYYHWTLSFLGMSLCLALMFICSWYYALVAMLIAGLIYKYIEYRGAEKEWGDGIRGLSLSAARYALLRLEEGPPHTKNWRPQLLVLVRVDQDQNVVHPQLLSLTSQLKAGKGLTIVGSVLEGTFLDNHPQAQRAEESIRRLMEAEKVKGFCQVVISSNLRDGVSHLIQSGGLGGLQHNTVLVGWPRNWRQKEDHQTWRNFIELVRETTAGHLALLVTKNVSMFPGNPERFSEGSIDVWWIVHDGGMLMLLPFLLRHHKVWRKCKMRIFTVAQMDDNSIQMKKDLTTFLYHLRITAEVEVVEMHESDISAYTYEKTLVMEQRSQILKQMHLTKNEREREIQSITDESRGSIRRKNPANPRLRLNVPEETACDNEEKPEEEVQLIHDQSAPSCPSSSPSPGEEPEGERETDPEVHLTWTKDKSVAEKNKGPSPVSSEGIKDFFSMKPEWENLNQSNVRRMHTAVRLNEVIVNKSRDAKLVLLNMPGPPRNRNGDENYMEFLEVLTEQLDRVMLVRGGGREVITIYS
